Source: publication PMC10649126
For at least one entry, the source does not settle the construct or the ends of the probe.

Test system: GST-AeHSFA2b (Actinidia eriantha)
Assay: EMSA
Details: cold probe competition 0x-50x reduced the shift; Chemiluminescent EMSA Kit (Beyotime), manufacturer's instructions; pH and temperature not stated; recombinant protein; protein details: GST (pGEX-4T-1, N-terminal by vector)

## GAGGAAACTTGAAGCTTCAAGAGGCGGT (double strand) [AeRFS4 promoter HSE probe (AeHSFA2b-EMSA-probe)]
  binding result: binds
